Results taken from PMC12297416.
Results are given in words; binding and its absence hold for the method and conditions named. Binding seen in cells or lysates may run through a third protein. Some binding calls cover weakened binding; strength is not graded here.

The chains behind the UniProt entries cited, without tags or fusion partners. Where a name states a change or a piece, a line headed by the entry shows the natural chain unless it says otherwise. Residues count along the entry.
UniProt P0A705: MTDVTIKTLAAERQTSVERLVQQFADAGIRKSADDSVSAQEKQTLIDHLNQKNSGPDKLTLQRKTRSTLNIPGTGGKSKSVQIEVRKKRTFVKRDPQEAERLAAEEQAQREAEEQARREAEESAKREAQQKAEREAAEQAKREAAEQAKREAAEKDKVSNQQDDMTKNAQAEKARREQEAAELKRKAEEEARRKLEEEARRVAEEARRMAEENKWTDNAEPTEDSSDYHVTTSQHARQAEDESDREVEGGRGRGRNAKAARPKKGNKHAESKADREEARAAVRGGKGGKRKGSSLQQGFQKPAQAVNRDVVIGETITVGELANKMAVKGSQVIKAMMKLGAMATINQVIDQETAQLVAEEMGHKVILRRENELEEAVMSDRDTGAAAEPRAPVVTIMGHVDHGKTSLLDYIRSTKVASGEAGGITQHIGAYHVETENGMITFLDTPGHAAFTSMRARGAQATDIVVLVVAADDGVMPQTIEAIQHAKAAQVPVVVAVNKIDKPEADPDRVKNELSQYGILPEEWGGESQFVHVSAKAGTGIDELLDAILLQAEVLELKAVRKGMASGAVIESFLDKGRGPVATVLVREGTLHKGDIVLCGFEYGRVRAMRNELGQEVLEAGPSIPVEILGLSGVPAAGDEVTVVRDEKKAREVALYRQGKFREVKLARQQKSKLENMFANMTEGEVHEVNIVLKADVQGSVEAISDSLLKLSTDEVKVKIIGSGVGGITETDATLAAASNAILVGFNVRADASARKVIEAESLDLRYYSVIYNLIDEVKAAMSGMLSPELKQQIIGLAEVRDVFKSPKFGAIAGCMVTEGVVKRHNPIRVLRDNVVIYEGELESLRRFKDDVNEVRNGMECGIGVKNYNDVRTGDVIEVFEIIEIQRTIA
6His-IF2γ: residues 165-890 of P0A705

Experiments:
[1] = target: 6His-IF2α (E. coli K-12 MG1655) (UniProt P0A705); assay: pull-down; His-tagged IF2 variants overexpressed in E. coli with chromosomal NusA-HaloTag (or plasmid-borne HaloTag alone); lysate loaded on HisPur cobalt resin at 4 °C, 20 mM Tris-HCl pH 7.5, 200 mM NaCl, 5 mM MgCl2, 5% glycerol, wash with 20 mM imidazole, elution with 300 mM imidazole; HaloTag proteins detected in SDS-PAGE by JFX549 dye
[2] = target: 6His-IF2γ (E. coli K-12 MG1655) (UniProt P0A705); assay: as above

For “NusA-HaloTag (from UniProt P0AFF6 1-495)”, the binding [1] was “binds” and the binding [2] was “no binding”.
